Some of the results follow.
These targets were tested with COc1ccc(Cn2ccc3cc(C)c(C(=O)NO)cc32)cc1 (assay: dose-dependent thermal stabilisation call (2D-TPP, DLPTP, 10% FDR) (binary (1 = stabilised)); higher = stabilised by the compound). Details: system: HL-60 intact cells; concentration range 0.04-10 µM.
Protocol: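 2D thermal proteome profiling in intact HL-60 cells treated with BRD-3811 (0, 0.04, 0.29, 2, 10 uM) for 90 min at 37 C, then heated 3 min at one of 12 temperatures (42-63.9 C). Soluble protein was quantified by TMT10 MS. The value is the DLPTP call of the paper: dose-dependent thermal stabilisation over all temperatures at 10% FDR (F-test of a dose-response against a flat model); one experiment, one call per tested protein.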

Amino acid sequences for entries named in this document (tags omitted). A change or cut given only in a name is not applied to a line headed by its entry.
UniProt Q8WV93: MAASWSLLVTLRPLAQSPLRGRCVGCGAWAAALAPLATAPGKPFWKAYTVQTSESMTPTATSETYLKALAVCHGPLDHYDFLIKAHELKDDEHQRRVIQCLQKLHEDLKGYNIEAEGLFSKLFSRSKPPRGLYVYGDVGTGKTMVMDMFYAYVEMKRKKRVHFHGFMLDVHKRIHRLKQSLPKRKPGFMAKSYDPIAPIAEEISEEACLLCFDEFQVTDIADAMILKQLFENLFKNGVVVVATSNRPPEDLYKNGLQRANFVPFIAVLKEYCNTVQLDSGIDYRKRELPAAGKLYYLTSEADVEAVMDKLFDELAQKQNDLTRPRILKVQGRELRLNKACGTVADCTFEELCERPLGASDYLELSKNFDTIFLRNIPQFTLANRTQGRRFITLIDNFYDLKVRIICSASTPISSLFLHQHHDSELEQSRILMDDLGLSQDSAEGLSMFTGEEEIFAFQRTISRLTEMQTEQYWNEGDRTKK
UniProt Q86WA8: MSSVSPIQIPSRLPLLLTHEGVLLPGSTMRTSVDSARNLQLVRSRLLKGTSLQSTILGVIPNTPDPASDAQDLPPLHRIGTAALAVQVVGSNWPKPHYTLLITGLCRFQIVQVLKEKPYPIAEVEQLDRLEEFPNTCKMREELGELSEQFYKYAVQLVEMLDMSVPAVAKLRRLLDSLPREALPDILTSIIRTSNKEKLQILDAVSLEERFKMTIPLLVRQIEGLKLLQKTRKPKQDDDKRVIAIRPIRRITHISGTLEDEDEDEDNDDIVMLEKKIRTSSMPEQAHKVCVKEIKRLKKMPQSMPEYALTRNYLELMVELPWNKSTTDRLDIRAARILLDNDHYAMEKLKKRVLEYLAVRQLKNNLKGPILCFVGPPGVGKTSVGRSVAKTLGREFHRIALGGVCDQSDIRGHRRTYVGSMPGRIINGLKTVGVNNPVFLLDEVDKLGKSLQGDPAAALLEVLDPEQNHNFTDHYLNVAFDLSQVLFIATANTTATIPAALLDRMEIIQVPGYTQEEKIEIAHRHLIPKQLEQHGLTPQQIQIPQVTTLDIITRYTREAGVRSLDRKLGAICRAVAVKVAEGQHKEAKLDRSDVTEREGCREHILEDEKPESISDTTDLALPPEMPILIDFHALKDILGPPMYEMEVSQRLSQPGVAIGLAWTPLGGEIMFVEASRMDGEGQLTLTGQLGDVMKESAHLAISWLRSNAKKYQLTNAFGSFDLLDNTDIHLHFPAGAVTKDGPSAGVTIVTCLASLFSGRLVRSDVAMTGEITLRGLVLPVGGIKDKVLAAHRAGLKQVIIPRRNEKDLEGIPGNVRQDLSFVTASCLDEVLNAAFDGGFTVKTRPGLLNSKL
UniProt Q9GZY6: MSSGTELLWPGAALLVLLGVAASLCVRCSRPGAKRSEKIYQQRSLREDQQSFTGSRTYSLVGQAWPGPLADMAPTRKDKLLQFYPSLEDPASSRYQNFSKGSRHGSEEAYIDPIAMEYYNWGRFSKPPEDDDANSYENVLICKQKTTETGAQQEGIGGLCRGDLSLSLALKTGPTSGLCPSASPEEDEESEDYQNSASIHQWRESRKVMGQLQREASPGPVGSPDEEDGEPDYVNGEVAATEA
UniProt Q7KZI7: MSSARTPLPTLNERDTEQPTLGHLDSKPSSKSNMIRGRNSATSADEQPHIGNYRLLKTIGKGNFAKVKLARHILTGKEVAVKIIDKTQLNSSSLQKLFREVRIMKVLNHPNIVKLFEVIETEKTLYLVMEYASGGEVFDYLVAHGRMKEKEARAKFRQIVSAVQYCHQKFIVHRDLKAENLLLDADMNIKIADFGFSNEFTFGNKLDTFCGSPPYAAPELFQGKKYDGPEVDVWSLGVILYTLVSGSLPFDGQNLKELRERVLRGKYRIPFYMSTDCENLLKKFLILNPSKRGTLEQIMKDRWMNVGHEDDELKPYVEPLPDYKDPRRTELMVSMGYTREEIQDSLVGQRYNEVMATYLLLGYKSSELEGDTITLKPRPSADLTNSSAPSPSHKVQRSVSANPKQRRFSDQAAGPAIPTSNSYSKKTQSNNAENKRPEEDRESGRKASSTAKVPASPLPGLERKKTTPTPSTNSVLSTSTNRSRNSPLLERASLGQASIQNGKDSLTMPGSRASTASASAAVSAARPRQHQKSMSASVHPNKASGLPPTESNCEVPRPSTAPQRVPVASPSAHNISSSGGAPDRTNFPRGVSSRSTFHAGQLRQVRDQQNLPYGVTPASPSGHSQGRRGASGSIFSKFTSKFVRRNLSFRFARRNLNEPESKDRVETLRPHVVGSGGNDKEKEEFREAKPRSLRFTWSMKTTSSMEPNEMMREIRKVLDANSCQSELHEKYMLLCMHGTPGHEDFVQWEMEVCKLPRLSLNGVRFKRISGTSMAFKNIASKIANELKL
UniProt O43318: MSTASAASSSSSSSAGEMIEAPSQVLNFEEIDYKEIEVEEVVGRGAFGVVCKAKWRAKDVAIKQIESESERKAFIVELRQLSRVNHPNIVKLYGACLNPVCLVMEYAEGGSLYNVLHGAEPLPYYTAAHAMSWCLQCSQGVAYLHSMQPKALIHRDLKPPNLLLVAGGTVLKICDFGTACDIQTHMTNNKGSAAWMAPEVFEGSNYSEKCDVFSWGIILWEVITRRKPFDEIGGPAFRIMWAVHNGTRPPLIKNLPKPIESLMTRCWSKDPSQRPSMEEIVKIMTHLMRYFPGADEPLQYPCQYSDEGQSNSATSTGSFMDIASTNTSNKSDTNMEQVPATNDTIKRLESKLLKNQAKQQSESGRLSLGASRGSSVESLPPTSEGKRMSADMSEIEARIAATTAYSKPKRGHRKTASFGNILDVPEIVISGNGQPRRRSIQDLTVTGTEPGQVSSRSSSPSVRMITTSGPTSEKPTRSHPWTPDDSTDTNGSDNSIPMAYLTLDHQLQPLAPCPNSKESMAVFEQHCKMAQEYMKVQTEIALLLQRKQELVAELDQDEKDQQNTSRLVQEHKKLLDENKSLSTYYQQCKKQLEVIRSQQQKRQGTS
UniProt P09382, whole entry: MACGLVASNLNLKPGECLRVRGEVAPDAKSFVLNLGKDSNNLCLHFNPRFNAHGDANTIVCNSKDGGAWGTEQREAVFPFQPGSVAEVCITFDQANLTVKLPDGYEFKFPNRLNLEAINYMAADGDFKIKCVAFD
UniProt Q9Y6D9: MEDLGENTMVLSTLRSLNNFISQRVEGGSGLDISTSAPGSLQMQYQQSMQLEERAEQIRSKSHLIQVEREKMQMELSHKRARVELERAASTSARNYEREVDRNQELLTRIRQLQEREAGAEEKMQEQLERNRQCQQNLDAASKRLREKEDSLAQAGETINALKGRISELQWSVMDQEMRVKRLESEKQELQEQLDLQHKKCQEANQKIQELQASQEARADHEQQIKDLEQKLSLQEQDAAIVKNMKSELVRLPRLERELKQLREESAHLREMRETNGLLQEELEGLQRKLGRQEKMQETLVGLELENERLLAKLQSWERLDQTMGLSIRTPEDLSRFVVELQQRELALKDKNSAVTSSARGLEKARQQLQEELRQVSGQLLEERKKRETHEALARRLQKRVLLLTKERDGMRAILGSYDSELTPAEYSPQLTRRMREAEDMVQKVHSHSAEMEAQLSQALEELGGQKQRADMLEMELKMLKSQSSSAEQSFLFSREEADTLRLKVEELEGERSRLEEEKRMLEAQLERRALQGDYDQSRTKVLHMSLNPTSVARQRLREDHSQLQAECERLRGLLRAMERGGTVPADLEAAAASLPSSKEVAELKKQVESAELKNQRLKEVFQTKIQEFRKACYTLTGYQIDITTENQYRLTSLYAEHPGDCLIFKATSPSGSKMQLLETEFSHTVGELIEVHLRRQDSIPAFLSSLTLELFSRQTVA
UniProt Q9UI95, whole entry: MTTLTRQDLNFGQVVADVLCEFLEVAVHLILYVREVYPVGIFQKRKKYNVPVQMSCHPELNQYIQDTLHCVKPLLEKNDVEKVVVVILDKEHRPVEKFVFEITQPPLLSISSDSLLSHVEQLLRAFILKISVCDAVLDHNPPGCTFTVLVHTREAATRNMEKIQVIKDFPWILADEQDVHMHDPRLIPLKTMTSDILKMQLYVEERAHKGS
UniProt P49006: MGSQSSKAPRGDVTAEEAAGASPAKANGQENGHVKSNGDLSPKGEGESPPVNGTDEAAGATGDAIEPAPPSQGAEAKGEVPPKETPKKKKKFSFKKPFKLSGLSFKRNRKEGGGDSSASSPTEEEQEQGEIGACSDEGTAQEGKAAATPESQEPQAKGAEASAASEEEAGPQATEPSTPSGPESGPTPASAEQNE
UniProt P13473: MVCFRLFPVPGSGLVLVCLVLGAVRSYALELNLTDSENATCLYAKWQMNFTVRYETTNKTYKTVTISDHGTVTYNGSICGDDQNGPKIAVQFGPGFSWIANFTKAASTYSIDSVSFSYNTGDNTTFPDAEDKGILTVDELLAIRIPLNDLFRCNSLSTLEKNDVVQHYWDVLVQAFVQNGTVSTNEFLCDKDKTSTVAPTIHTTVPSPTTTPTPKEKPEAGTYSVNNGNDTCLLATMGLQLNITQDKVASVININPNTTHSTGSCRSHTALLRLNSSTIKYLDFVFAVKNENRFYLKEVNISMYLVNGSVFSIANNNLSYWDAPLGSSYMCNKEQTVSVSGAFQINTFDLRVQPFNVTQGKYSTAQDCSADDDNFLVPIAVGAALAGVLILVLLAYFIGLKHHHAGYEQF
UniProt O00462: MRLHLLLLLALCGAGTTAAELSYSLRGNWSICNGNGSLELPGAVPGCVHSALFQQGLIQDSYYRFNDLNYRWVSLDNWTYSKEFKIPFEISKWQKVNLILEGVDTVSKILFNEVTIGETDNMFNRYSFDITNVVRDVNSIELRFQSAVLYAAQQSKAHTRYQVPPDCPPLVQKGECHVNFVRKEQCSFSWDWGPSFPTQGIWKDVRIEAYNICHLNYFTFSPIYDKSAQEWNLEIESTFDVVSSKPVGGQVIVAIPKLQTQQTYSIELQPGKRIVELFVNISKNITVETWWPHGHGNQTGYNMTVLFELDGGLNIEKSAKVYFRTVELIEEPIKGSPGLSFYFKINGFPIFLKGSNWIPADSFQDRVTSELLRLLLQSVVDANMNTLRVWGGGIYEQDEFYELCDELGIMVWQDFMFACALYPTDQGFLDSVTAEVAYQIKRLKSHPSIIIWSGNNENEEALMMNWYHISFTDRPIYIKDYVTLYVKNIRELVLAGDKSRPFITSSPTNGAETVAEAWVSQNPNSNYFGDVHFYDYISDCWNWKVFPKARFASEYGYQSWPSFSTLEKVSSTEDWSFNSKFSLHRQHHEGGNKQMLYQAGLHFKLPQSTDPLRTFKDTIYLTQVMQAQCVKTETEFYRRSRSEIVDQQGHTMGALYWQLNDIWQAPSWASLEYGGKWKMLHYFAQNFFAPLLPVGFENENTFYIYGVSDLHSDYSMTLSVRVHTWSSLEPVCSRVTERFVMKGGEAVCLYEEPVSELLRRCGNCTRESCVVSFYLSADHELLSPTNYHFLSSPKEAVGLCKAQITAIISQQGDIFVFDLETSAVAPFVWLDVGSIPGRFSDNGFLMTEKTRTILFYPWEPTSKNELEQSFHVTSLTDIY
UniProt Q8IVS2: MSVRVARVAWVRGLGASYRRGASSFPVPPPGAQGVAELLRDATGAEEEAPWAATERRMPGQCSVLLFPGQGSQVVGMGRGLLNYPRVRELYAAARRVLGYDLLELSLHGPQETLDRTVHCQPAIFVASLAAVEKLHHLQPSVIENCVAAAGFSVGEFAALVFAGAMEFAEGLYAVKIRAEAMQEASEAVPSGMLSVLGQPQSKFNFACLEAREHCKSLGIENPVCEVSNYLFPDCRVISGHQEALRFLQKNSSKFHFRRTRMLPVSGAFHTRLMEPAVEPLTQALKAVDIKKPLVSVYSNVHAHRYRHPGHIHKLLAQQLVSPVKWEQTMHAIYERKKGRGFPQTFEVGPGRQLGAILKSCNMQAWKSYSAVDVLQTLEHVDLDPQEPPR
UniProt P45985: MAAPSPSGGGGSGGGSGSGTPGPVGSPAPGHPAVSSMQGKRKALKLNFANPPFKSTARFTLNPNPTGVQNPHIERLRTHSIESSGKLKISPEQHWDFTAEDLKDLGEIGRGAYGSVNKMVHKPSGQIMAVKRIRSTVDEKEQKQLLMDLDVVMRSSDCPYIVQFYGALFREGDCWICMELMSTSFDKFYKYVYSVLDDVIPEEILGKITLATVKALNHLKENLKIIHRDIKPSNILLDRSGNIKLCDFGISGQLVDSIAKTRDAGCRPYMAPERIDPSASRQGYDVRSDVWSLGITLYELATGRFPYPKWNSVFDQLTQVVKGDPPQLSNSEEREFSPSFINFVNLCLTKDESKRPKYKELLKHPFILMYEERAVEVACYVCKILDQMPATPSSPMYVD
UniProt O95983: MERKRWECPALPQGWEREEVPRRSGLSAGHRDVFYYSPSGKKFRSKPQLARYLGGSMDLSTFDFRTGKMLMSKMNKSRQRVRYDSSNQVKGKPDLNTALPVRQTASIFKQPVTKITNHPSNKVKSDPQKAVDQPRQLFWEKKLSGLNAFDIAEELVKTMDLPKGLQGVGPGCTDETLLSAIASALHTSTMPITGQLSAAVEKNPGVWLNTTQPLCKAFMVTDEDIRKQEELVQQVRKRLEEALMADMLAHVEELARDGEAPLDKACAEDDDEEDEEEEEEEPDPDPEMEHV

Target	dose-dependent thermal stabilisation call
LSM5 (UniProt Q9Y4Y9)	inactive: 0
LACE1 (UniProt Q8WV93)	inactive: 0
MAGOH (UniProt P61326)	inactive: 0
LONP2 (UniProt Q86WA8)	inactive: 0
LZIC (UniProt Q8WZA0)	inactive: 0
LAT2 (UniProt Q9GZY6)	inactive: 0
MCCC1 (UniProt Q96RQ3)	inactive: 0
LGALS9 (UniProt O00182)	inactive: 0
LIG1 (UniProt P18858)	inactive: 0
MARK2 (UniProt Q7KZI7)	inactive: 0
MAP3K7 (UniProt O43318)	inactive: 0
LOC100130633	inactive: 0
LGALS1 (UniProt P09382)	inactive: 0
MAP3K4 (UniProt Q9Y6R4)	inactive: 0
MAD1L1 (UniProt Q9Y6D9)	inactive: 0
LRBA (UniProt P50851)	inactive: 0
MAD2L2 (UniProt Q9UI95)	inactive: 0
LMTK2 (UniProt Q8IWU2)	inactive: 0
LPCAT2 (UniProt Q7L5N7)	inactive: 0
MAP2K7 (UniProt O14733)	inactive: 0

Target	dose-dependent thermal stabilisation call
LMAN2L (UniProt Q9H0V9)	inactive: 0
LRP6 (UniProt O75581)	inactive: 0
MARCKSL1 (UniProt P49006)	inactive: 0
LATS1 (UniProt O95835)	inactive: 0
LAMP2 (UniProt P13473)	inactive: 0
MANBA (UniProt O00462)	inactive: 0
LOC348262	inactive: 0
LRRC8C (UniProt Q8TDW0)	inactive: 0
LCLAT1 (UniProt Q6UWP7)	inactive: 0
MDP-1	inactive: 0
MCAT (UniProt Q8IVS2)	inactive: 0
LOC100130932	inactive: 0
LSM3 (UniProt P62310)	inactive: 0
MAP2K4 (UniProt P45985)	inactive: 0
LMNB1 (UniProt P20700)	inactive: 0
LOC642393	inactive: 0
LUC7L (UniProt Q9NQ29)	inactive: 0
MBD3 (UniProt O95983)	inactive: 0
MAX (UniProt P61244)	inactive: 0
MAGEB2 (UniProt O15479)	inactive: 0

As a working copy, part of the list above:
Target	dose-dependent thermal stabilisation call
LOC642393	inactive: 0
LUC7L (UniProt Q9NQ29)	inactive: 0
